In patent US20080044424A1:
These are yes or no findings as the source states them, for the method shown. Some entries that bind do so weakly or less than the wild type.

Sequences of proteins named here, by UniProt entry; tags and fusion partners are left off. Residues count along the entry.
UniProt P25116, residues 42-102: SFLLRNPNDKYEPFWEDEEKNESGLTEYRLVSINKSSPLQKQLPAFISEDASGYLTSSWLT

Target: thrombin-cleaved PAR1/thioredoxin: portion of PAR1 adjacent to the thioredoxin fusion protein (human) (UniProt P25116)
Test: immunoprecipitation with antibody on Protein G, SDS-PAGE

binding: binds
B1: mouse anti-hPAR1 antibody clone 4E7.J14.L16 (antibody, mouse IgG1, V domains shown)
VH: EVQLQQSGPVLVKPGASVKMSCEASGYTFTDYYMNWVKQSHGKSLEWIGVIDPHNGRSRYNQMFKGKATMTVDKSSSTAYMELNNLTSKDSAVYYCASDDGPSHWYFDVWGTGTTVTVSS
VL: DVLMTQTPLSLPVSLGDQASISCRSSQNIVHSNGNTYLEWYLQTPGQSPKLLIYKVSNRFSGVPDRFSGSGSGTDFTLKISRVEAEDLGIYYCFQGSHVPFTFGSGTKLEIK
